# Laboratory results published in US11266609B2, “Bacitracin and/or daptomycin combined with cannabidiol for treatment of bacterial infections” (priority 2017, dated 2022).
# Where two headings read alike, the source gives them in different places. Some entries share one result that the patent states for a list of compounds.
# System: MRSA USA300 FPR3757
# Type: cell-based, Staphylococcus aureus
# Conditions: WT USA300, combination of cannabidiol with the respective antibiotic, synergy <= 0.5, no interaction 0.5-4.0, antagonism > 4
# Procedure: The resistant bacterium MRSA USA300 FPR3757 (USA300) was the main used bacterium throughout this study. MRSA was grown in Brain Heart Infusion (BHI) or Müeller Hinton (MH) media on plate or in liquid cultures with agitation at 37° C.
# An ON culture was made by inoculating a bacterial colony in either 5 mL of MH or BHI and incubating at 37° C. with agitation. The antibiotic of interest was added to a row of a sterile 96-well plate (VWR) and a serial dilution was made down the rows containing 50 μL of MH or BHI media in each well, resulting in 2-fold dilution for each row. The ON culture was diluted to OD625 at approximately 1.0 followed by a 1:100 dilution to approximately OD625=0.01 of which 50 μL was added to each well to a final volume of 100 μL. The 96-well plate was incubated at 37° C. with shaking at 225 rpm for approximately 18-24 hours. Presence and absence of growth were determined by visual appearance.
# B) The other screen was based on fractional inhibitory concentration (FIC) index.
smiles,measurement,setting,value
CO/N=C(\C(=O)N[C@@H]1C(=O)N2C(C(=O)O)=C(CSc3nc(=O)c(=O)[nH]n3C)CS[C@H]12)c1csc(N)n1 [Ceftriaxone],FIC Index,listed as ceftriaxone,≥ 1
[H]/N=C(\N/C(=N/[H])NCCCCCCNC(=N)NC(=N)Nc1ccc(Cl)cc1)Nc1ccc(Cl)cc1 [Chlorhexidine],FIC Index,listed as chlorhexidine,≥ 1
Cc1onc(-c2c(Cl)cccc2Cl)c1C(=O)N[C@@H]1C(=O)N2[C@@H]1SC(C)(C)[C@@H]2C(=O)O [Dicloxacillin],FIC Index,listed as dicloxacillin,≥ 1
